According to patent US6632921B1 (G. D Searle & Co, priority 1995, dated 2003):

Legend:
[1] = general procedure: Boc solid-phase peptide synthesis; hydroxymethyl-resin of styrene/1% divinylbenzene; dicyclohexylcarbodiimide; disuccinimidylcarbonate/4-dimethylaminopyridine; conditions: whole synthesis, bis-trifluoroacetate
[2] = general procedure: Boc solid-phase peptide synthesis; N-BOC-L-leucyl-O-methylphenylacetamido-methyl-resin; dicyclohexylcarbodiimide; disuccinimidylcarbonate/4-dimethylaminopyridine; conditions: whole synthesis, bis-trifluoroacetate

Substance	final HPLC purity [1]	final HPLC purity [2]
L-alanine, 3-cyclohexyl-N-[[(il-amino-undecanoyl)-L-seryl]-L-lysyl]-, bis-trifluoroacetate	95%	–
L-leucine, N-[[(11-amino-undecanoyl)-L-seryl]-L-lysyl]-, bis-trifluoroacetate	–	98%
